Assay [1] has as its target HA-tagged phosphatidylinositol-4-phosphate 5-kinase type-l gamma (PIP5Klγ), wild type (human) (UniProt O60331). Briefly: co-IP; Hek293T cells co-transfected with GFP-tagged Talin and HA-tagged PIP5Klγ or PIP5Klγ.S448A (S448A also with FLAG-tagged PKD1.CA); anti-HA immunoprecipitation, blot with anti-GFP.
Assay [2] concerns the target HA-tagged PIP5Klγ.S448A (human) (UniProt O60331). The description is as above.
The target in assay [3] is T1, constitutively-active PKD1 (S738E/S742E), ectopically expressed (human) (UniProt Q15139).
T1 sequence: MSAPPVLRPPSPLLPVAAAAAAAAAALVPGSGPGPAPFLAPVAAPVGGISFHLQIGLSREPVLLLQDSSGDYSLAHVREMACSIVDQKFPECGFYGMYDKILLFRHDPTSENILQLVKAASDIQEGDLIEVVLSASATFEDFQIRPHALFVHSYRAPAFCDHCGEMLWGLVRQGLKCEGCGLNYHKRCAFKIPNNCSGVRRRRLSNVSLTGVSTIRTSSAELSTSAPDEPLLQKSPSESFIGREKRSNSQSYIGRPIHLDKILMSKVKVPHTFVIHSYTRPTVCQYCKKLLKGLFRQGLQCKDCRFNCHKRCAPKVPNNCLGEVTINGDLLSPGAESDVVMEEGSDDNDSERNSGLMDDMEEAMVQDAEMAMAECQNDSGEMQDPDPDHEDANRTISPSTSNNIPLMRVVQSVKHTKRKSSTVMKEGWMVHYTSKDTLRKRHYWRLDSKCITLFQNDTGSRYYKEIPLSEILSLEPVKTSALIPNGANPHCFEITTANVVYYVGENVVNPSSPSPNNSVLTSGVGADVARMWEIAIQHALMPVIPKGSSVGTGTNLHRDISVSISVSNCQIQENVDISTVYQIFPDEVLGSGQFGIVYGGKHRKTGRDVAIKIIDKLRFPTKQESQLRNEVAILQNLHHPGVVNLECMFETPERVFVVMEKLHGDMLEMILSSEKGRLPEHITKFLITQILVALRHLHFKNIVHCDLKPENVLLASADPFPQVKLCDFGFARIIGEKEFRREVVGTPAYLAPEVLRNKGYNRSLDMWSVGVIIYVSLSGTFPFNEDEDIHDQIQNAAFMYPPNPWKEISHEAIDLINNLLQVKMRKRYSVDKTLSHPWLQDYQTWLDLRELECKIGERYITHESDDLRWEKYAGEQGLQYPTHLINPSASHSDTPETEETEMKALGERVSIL
Briefly: co-IP; ectopically-expressed FAK and ectopically-expressed PKD1 (wild type or constitutively-active); Supplemental Figure S1C,D; who was precipitated is not told in the text shown.

Chains of the proteins cited; added tags and fusions are not shown. Lines headed by an entry give the natural chain unless they say otherwise; changes in a name come on top.
UniProt O60331: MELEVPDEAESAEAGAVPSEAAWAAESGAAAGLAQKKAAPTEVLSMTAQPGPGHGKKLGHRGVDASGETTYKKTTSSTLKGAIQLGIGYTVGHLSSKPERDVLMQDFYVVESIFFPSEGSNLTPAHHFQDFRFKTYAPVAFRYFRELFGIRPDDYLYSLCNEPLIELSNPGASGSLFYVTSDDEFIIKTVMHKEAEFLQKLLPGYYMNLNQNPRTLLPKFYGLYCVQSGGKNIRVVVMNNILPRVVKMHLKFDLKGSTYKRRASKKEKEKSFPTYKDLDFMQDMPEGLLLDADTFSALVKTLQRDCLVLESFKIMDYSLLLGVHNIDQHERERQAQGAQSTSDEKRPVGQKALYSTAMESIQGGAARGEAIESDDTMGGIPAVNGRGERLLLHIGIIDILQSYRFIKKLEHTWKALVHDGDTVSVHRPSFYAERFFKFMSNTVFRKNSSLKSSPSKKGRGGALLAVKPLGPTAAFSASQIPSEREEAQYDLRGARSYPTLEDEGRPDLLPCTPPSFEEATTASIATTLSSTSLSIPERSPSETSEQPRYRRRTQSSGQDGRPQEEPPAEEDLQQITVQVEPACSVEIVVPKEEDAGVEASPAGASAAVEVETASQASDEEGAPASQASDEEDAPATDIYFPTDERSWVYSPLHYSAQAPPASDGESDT
UniProt P26039: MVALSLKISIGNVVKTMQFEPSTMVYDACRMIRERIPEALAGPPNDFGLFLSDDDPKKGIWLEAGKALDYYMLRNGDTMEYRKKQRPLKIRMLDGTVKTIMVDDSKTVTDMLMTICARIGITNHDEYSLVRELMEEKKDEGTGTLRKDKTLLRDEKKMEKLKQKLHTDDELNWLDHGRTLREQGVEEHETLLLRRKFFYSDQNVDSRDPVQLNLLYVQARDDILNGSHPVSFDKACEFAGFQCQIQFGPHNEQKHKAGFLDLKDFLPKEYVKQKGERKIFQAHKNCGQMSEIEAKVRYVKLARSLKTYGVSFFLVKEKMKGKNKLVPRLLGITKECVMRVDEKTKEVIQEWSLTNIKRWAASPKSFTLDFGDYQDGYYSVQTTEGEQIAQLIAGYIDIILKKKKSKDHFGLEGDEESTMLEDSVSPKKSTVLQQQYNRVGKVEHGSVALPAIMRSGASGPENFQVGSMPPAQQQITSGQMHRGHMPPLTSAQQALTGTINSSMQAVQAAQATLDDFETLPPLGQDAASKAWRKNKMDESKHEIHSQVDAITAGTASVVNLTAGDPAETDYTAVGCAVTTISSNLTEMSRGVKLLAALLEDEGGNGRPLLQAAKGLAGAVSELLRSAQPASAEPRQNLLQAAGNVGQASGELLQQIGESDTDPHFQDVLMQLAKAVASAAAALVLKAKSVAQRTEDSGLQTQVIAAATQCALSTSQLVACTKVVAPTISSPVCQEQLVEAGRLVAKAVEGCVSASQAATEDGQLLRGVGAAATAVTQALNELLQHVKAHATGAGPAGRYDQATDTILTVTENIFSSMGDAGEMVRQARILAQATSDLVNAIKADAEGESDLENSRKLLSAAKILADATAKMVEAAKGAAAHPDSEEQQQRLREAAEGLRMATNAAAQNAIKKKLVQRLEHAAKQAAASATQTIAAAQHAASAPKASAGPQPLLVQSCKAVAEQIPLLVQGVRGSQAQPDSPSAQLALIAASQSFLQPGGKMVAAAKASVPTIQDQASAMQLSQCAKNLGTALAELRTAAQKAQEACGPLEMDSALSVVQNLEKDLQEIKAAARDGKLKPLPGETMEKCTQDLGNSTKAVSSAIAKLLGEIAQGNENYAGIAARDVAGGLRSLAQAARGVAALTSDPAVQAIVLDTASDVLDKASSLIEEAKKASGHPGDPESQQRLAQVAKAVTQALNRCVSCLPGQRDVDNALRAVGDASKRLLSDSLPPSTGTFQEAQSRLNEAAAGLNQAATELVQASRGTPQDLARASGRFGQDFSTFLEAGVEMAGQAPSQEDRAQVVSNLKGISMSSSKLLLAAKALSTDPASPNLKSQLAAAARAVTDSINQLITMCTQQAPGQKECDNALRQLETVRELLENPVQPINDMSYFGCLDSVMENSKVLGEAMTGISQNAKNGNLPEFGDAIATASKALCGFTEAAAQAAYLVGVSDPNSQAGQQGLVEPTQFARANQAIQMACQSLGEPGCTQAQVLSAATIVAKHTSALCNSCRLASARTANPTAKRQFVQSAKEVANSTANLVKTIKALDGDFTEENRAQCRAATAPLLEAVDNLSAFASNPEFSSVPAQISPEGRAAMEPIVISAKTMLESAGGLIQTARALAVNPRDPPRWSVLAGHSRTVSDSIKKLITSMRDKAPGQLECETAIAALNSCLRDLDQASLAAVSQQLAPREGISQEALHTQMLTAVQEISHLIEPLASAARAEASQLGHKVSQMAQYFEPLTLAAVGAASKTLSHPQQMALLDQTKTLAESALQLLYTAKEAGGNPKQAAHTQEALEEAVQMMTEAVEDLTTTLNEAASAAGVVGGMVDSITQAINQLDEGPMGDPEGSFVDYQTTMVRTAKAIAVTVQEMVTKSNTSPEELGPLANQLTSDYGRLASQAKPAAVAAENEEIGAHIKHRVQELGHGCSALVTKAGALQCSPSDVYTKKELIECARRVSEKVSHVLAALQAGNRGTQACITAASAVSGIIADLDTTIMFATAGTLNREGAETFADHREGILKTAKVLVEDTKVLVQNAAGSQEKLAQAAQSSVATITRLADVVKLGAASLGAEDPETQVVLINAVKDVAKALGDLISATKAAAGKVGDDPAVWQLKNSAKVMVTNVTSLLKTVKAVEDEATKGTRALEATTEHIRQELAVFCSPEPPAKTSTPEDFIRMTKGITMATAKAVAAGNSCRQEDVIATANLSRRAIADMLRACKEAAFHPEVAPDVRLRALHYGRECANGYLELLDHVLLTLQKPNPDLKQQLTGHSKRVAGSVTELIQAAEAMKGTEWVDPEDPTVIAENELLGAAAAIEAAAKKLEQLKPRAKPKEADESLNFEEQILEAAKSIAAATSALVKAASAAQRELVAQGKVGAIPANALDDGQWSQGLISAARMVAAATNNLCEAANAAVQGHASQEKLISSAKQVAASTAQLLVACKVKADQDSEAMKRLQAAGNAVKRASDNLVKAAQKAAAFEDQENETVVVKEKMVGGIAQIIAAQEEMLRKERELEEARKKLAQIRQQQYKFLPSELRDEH
UniProt Q05397: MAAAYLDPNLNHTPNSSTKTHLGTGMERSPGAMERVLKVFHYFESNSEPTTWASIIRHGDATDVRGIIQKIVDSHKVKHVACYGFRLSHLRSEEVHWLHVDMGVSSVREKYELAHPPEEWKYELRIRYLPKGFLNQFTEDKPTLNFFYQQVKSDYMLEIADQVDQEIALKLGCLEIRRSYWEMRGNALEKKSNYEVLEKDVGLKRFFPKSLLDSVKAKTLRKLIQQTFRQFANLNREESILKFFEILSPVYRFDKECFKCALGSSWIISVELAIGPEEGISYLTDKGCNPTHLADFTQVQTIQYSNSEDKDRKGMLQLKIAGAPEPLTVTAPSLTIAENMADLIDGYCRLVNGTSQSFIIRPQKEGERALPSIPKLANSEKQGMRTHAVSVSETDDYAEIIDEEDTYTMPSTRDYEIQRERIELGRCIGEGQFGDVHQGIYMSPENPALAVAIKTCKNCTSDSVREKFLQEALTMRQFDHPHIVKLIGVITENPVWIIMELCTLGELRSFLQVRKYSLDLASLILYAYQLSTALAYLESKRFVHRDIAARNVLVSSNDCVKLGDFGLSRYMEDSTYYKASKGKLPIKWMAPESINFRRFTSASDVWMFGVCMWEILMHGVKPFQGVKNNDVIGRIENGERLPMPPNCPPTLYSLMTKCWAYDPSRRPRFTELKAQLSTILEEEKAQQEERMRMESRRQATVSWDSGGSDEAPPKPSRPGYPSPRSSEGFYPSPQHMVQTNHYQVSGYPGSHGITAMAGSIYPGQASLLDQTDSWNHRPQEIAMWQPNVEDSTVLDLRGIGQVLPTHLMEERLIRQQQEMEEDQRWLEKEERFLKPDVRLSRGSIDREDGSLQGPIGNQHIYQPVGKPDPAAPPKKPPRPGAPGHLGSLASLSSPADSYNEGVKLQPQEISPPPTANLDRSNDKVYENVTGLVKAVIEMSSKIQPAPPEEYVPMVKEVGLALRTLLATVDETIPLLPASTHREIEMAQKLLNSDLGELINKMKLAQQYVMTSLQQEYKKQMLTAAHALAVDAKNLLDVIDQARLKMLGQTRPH
UniProt P34152: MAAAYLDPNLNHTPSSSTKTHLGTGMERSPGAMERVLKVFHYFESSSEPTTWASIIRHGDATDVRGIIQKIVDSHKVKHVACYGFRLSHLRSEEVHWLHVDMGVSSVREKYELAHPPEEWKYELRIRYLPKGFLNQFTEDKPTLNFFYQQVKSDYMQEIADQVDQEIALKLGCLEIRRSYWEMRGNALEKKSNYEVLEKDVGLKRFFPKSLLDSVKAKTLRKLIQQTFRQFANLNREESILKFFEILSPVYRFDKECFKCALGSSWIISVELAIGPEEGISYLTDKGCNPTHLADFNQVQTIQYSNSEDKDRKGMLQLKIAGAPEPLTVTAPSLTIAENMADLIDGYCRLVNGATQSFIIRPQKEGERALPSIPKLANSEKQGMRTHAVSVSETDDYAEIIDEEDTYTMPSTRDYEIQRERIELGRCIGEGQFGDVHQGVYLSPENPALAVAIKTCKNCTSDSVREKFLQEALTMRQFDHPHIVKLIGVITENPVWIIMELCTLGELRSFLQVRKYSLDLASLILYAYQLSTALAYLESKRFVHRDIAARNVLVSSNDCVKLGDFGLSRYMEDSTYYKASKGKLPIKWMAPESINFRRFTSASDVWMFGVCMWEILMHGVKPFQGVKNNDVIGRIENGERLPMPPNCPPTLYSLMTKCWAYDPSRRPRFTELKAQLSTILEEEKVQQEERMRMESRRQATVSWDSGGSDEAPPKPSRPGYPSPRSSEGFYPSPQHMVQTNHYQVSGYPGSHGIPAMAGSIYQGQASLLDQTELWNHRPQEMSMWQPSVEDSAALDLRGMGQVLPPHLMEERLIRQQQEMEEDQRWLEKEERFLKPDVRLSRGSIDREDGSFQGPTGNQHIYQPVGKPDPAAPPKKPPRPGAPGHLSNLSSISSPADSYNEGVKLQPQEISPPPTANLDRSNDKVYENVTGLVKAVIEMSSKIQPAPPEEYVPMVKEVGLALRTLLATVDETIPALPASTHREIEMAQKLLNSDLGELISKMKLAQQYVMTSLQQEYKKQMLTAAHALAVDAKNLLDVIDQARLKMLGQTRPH

For assay [4], the target named is T2, wild type PKD1, ectopically expressed (human) (UniProt Q15139).
T2 sequence: T1 sequence with E738S, E742S
Described as above.

In assay [5] the target is T3, Protein Kinase D1 (PKD1), endogenous (mouse (endogenous in NIH-3T3)) (UniProt Q62101).
T3 sequence: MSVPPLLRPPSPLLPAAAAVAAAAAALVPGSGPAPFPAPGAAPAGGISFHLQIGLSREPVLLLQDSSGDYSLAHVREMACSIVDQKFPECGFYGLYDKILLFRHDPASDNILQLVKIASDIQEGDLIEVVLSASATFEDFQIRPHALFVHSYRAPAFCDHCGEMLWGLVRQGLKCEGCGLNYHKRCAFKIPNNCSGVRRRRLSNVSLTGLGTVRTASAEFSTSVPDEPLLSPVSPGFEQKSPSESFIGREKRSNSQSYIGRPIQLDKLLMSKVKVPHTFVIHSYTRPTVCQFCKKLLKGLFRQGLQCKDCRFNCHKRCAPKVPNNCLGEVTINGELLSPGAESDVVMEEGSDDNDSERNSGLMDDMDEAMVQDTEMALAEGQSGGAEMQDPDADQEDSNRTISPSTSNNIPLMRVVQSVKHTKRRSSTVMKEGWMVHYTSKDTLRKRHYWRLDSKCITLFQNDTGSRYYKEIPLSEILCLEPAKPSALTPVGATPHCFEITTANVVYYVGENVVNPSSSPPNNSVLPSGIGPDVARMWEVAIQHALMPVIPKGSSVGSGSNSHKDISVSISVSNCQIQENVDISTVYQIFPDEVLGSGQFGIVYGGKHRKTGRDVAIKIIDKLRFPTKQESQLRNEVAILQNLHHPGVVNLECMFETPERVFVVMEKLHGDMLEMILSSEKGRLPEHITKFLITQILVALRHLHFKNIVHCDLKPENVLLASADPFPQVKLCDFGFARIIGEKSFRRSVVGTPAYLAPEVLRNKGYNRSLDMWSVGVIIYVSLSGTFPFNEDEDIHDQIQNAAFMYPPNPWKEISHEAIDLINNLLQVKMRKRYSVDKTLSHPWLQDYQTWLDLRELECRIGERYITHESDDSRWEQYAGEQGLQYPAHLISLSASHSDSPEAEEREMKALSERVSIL
Briefly: co-IP; NIH-3T3 cells serum-starved for 16 hours, stimulated with 10 μg/ml fibronectin for 30 minutes; endogenous PKD1 immunoprecipitated, blot for endogenous FAK; lysis in Buffer A (50 mM Tris-HCl pH7.4, 1% Triton X-100, 150 mM NaCl, 5 mM EDTA).

Positions count from the first letter of the chain named. Results are given in words; binding and its absence hold for the method and conditions named. In cells and extracts the contact can be indirect. Some binding calls cover weakened binding; strength is not graded here.

Regarding “GFP-tagged Talin (from UniProt P26039 1-2541)”, the binding result in assay [1] and in assay [2] was “binds” throughout.

As for “ectopically-expressed FAK (from UniProt Q05397 1-1052) (enzyme)”, the binding entry in assay [3] and in assay [4] was “binds” throughout.

In the case of “focal adhesion kinase (FAK), endogenous (from UniProt P34152 1-1052) (enzyme)”, the binding result in assay [5] is on record as “binds”.

The values are drawn from paper PMC5075913.
